Measurements reported in PubChem BioAssay AID1224830 (NIAID, 2016).
The whole screen tested about 18,000 reagents; this is a part drawn at random. About 2,900 of all reagents (16%) count as active. 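Calls are made per well; low scores hint the gene aids the LPS response, high scores that it dampens it.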 Entries without a mark were called inactive. Repeated entries: four replicate wells of each siRNA pool.

- Test: 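Host factors that control LPS-induced TNF expression in human macrophages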 (primary screen)
- Cells: human THP-1 monocytic leukaemia cells, TNF dual-luciferase reporter clone, PMA-differentiated to macrophage-like cells
- Reagents: siRNA pool against human genes, 50 nM
- Time to read-out: LPS for 4 h, given about 3 days after siRNA transfection
- Challenge: bacterial LPS (TLR4 ligand), 10 ng/ml
- Measurement: 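Ratio of firefly to renilla light, scaled to the plate median and expressed as a robust z-score per replicate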
- Reading the numbers: TNF reporter robust z-score: higher = stronger TNF reporter response to LPS
- Rule for the call: 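Each well counts as active if its z-score is over 2.8 or under -1.5; controls are left without a call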

RALGPS2 → TNF reporter robust z-score = -1.17
RALGPS2 → TNF reporter robust z-score = 0.14
RALGPS2 → TNF reporter robust z-score = -0.19
RALGPS2 → TNF reporter robust z-score = -0.02
PLXNA3 → TNF reporter robust z-score = -2.59 (active)
PLXNA3 → TNF reporter robust z-score = -0.34
PLXNA3 → TNF reporter robust z-score = 0.25
PLXNA3 → TNF reporter robust z-score = 0.82
DPF1 → TNF reporter robust z-score = -1.28
DPF1 → TNF reporter robust z-score = 2.05
DPF1 → TNF reporter robust z-score = -1.58 (active)
DPF1 → TNF reporter robust z-score = -1.05
ACSL6 → TNF reporter robust z-score = -0.5
ACSL6 → TNF reporter robust z-score = -0.86
ACSL6 → TNF reporter robust z-score = 0.1
ACSL6 → TNF reporter robust z-score = 0.26
RHOD → TNF reporter robust z-score = 0.17
RHOD → TNF reporter robust z-score = 1.64
RHOD → TNF reporter robust z-score = 0.69
RHOD → TNF reporter robust z-score = 1.4
RABEPK → TNF reporter robust z-score = -0.17
RABEPK → TNF reporter robust z-score = 1.07
RABEPK → TNF reporter robust z-score = 1.13
RABEPK → TNF reporter robust z-score = 2.01
SERTAD3 → TNF reporter robust z-score = 1.18
SERTAD3 → TNF reporter robust z-score = 0.02
SERTAD3 → TNF reporter robust z-score = 0.08
SERTAD3 → TNF reporter robust z-score = 2.12
PEX10 → TNF reporter robust z-score = -1.05
PEX10 → TNF reporter robust z-score = -1.93 (active)
PEX10 → TNF reporter robust z-score = -0.78
PEX10 → TNF reporter robust z-score = -2.09 (active)
APOA2 → TNF reporter robust z-score = 0.51
APOA2 → TNF reporter robust z-score = 0.07
APOA2 → TNF reporter robust z-score = 0.25
APOA2 → TNF reporter robust z-score = -0.17
ACTRT1 → TNF reporter robust z-score = -0.12
ACTRT1 → TNF reporter robust z-score = -0.63
ACTRT1 → TNF reporter robust z-score = -0.84
ACTRT1 → TNF reporter robust z-score = -0.33
CFD → TNF reporter robust z-score = 0.7
CFD → TNF reporter robust z-score = 1.23
CFD → TNF reporter robust z-score = -0.57
CFD → TNF reporter robust z-score = 0.24
CCDC157 → TNF reporter robust z-score = 0.52
CCDC157 → TNF reporter robust z-score = -0.12
CCDC157 → TNF reporter robust z-score = -0.83
CCDC157 → TNF reporter robust z-score = 0.43

No new results follow: an excerpt of the list.
APOA2 → TNF reporter robust z-score = -0.17
ACTRT1 → TNF reporter robust z-score = -0.12
ACTRT1 → TNF reporter robust z-score = -0.63
ACTRT1 → TNF reporter robust z-score = -0.84
ACTRT1 → TNF reporter robust z-score = -0.33
